Patent publication US7910362B2, “Reporter vector for use in evaluation of CYP1A2 induction” (Eisai R&D Management Co., Ltd., priority 2005, dated 2011)
Some entries share one result that the patent states for a list of compounds. For at least one compound, name, drawing or mass did not settle the structure.

Tested on: human CYP1A2
Assay: Reporter assay in HepG2 cells: secreted alkaline phosphatase (SEAP) activity, which reflects CYP1A2
Format: cell-based
Settings: expression vector Q, R or S comprising the region neighboring CYP1A1, 40 hours

SMILES | reporter activity (SEAP) compared with DMSO
O=c1cc(-c2ccccc2)oc2ccc3ccccc3c12 [BNF, β-naphthoflavone] | 5- to 6 fold
Cc1ccc2cc3c(ccc4ccccc43)c3c2c1CC3 [3-MC, 3-methylcholanthrene] | 5- to 6 fold
